The supplement of paper PMC11006884
The entries are a selection whose mix differs from that of the whole data set.

Sequences of proteins named here, by UniProt entry; tags and fusion partners are left off. A change or cut given only in a name is not applied to a line headed by its entry.
UniProt Q15369, whole entry: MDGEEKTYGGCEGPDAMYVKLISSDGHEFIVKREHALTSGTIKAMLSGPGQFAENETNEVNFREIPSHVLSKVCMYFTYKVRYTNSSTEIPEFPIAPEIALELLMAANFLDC
UniProt Q32MZ4: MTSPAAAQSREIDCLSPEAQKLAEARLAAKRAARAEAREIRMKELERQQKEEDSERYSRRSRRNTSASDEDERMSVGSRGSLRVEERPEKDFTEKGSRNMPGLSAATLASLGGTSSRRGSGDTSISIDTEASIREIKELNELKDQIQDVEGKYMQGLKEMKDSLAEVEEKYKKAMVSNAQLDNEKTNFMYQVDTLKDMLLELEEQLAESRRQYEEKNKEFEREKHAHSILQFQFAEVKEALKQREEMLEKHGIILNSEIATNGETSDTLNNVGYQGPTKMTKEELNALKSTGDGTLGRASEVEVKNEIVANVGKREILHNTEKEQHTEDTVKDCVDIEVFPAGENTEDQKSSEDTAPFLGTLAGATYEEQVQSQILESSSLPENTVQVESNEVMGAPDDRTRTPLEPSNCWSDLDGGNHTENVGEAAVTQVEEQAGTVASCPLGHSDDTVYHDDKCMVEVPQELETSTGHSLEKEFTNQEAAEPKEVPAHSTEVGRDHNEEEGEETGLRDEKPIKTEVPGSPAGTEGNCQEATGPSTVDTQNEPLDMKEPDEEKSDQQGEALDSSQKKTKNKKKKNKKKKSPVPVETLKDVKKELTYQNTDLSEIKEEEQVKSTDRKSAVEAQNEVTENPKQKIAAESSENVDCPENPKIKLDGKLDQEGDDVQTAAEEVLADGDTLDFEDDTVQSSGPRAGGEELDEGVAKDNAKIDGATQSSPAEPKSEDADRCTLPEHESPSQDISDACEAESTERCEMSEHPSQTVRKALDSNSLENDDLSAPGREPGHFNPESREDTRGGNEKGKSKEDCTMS
UniProt Q15738: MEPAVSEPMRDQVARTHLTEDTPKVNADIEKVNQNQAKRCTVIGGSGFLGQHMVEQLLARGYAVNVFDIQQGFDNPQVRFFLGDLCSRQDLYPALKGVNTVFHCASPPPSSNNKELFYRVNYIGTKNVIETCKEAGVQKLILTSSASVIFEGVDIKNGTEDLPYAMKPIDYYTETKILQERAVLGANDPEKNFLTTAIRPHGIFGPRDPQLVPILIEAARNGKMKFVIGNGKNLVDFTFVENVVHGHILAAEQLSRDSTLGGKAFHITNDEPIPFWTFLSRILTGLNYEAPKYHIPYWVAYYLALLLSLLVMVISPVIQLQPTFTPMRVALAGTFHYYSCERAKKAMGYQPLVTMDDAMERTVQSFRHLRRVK
UniProt Q15046, whole entry, looked up: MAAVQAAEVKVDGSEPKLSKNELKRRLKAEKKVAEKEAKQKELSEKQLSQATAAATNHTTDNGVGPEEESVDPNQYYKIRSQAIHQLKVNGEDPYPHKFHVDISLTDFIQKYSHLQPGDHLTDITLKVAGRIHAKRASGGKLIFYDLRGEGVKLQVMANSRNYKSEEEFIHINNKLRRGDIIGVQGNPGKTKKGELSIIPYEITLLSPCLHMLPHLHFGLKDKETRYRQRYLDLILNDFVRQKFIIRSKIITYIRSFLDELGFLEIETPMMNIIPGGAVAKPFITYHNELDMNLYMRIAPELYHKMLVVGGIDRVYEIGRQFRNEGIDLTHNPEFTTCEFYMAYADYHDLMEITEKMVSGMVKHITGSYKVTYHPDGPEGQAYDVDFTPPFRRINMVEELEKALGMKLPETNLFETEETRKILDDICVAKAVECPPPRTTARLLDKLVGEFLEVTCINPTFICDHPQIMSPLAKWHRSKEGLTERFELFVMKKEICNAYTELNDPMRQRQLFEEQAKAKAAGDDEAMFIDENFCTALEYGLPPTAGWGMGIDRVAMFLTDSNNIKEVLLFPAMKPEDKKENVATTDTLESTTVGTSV
UniProt Q15149: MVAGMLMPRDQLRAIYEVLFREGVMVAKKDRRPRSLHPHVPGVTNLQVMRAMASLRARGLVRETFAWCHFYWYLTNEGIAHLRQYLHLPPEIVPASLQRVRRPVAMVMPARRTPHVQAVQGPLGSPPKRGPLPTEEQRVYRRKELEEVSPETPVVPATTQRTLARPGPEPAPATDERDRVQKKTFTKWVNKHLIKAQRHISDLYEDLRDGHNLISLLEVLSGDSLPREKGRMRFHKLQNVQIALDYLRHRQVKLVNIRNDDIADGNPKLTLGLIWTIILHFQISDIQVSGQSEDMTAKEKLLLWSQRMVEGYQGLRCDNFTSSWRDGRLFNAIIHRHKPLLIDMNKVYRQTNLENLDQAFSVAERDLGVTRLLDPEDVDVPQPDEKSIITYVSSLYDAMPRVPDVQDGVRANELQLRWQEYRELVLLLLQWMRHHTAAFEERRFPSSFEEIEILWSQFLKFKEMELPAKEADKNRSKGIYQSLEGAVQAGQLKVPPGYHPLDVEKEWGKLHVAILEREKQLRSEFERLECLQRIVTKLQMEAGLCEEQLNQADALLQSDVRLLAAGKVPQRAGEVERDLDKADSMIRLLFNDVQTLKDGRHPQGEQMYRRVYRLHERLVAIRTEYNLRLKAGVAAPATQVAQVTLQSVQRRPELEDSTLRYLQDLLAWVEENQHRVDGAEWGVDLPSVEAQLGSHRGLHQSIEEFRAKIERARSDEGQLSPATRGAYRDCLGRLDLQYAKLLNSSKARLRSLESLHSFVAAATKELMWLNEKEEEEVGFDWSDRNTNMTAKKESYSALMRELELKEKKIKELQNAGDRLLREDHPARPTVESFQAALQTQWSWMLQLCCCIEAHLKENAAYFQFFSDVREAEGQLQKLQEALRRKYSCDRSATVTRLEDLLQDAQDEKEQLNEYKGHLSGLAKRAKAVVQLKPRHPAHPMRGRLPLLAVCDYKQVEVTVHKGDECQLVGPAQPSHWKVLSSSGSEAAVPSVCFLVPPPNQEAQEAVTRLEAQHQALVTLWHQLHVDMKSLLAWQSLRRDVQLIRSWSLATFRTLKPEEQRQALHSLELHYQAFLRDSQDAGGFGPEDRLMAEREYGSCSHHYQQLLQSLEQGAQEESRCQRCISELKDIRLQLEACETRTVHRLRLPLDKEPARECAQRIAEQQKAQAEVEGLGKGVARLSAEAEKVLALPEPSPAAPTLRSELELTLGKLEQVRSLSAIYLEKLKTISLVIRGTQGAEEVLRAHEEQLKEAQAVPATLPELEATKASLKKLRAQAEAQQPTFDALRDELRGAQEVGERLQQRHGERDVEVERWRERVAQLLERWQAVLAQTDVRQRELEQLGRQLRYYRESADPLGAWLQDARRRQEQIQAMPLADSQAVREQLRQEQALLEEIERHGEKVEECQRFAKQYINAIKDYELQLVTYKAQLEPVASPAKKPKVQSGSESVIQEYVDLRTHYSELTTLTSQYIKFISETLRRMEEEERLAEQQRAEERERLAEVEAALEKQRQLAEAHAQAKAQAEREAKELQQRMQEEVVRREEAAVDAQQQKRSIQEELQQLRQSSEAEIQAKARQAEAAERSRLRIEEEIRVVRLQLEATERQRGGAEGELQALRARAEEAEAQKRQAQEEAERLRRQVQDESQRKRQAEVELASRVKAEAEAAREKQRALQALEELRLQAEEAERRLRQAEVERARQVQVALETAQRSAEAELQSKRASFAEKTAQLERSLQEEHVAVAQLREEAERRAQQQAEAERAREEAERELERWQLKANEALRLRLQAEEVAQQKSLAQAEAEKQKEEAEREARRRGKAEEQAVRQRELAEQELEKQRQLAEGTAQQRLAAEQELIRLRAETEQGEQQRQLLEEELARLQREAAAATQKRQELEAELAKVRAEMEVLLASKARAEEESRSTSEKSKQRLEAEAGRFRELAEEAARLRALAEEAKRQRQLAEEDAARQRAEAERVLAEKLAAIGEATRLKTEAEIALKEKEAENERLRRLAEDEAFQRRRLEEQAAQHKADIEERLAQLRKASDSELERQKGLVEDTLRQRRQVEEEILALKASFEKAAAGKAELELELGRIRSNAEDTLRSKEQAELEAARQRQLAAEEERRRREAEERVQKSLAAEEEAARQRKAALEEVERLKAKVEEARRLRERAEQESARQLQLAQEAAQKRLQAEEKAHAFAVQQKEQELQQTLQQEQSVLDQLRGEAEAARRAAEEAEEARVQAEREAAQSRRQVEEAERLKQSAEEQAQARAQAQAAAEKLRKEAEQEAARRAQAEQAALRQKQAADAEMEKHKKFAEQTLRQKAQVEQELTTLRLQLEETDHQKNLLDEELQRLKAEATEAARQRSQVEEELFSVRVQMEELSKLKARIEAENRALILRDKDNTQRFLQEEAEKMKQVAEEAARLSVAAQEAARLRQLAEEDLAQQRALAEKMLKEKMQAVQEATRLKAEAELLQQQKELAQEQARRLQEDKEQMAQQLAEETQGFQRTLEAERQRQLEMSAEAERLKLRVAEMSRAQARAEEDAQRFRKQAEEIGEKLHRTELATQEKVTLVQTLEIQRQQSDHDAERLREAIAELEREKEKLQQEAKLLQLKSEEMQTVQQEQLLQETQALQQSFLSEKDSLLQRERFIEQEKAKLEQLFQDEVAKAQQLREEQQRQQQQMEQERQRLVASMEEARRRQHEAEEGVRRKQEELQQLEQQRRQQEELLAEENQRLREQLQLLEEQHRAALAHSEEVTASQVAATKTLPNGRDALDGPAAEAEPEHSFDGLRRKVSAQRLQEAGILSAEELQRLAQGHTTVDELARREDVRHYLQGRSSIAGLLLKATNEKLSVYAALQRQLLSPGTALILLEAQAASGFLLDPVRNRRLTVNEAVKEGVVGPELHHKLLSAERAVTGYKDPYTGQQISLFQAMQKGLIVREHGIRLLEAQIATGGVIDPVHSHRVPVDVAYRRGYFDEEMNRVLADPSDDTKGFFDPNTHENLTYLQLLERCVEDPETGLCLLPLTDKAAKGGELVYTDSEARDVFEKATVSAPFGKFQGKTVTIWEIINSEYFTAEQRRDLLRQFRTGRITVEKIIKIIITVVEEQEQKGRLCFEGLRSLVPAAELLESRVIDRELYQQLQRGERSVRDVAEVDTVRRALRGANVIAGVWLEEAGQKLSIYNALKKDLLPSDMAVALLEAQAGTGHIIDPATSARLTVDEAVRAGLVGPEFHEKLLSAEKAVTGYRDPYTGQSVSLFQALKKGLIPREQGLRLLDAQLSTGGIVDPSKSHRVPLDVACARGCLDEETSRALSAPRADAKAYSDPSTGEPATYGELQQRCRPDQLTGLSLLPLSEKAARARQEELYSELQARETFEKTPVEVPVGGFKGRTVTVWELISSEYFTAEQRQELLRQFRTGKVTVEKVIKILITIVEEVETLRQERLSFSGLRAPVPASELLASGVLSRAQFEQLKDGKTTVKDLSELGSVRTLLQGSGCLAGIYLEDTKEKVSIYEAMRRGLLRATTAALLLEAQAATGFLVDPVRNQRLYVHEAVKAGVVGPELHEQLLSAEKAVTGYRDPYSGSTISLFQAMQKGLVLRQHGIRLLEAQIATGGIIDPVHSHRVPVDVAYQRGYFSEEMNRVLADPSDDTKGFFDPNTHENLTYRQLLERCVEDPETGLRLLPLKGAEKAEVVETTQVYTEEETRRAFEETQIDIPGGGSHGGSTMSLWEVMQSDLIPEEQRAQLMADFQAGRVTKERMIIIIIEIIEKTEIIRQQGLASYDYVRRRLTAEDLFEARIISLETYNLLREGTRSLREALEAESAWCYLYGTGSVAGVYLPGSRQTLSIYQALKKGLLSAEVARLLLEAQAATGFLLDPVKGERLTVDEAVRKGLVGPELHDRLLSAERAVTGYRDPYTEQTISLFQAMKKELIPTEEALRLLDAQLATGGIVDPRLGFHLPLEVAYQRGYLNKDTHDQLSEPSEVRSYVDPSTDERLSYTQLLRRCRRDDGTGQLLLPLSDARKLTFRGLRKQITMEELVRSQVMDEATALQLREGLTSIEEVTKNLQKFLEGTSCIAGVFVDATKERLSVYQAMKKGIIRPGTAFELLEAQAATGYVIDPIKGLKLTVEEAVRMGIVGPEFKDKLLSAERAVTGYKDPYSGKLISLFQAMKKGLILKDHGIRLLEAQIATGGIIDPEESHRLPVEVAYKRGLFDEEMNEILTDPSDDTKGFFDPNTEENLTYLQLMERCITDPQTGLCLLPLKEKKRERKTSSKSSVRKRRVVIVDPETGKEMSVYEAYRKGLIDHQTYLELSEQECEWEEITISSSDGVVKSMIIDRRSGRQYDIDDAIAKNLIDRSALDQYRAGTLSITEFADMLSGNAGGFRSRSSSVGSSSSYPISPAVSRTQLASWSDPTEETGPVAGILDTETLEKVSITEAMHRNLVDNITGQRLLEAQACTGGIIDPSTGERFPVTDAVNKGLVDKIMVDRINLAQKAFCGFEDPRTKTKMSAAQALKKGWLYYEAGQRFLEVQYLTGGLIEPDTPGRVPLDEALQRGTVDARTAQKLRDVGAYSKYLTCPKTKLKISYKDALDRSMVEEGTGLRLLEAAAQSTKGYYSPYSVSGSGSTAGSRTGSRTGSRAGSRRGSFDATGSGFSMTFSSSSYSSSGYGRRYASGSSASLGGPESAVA

Compound: COC(=O)C#Cc1ccccc1 [methyl 3-phenylpropiolate]
Assay: log2 ratio of iodoacetamide-alkyne labeling of the cysteine site, DMSO over compound (competition); higher = stronger covalent engagement of the cysteine by the compound, active = 1 or more
Settings: 500 µM; treatment time 1 h; system: HEK293T cell lysate
How it was run: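 After 1 h at ambient temperature with vehicle or electrophile (500 µM), HEK293T lysate (2 mg/mL) was labelled for 1 h with iodoacetamide alkyne and clicked to sCIP-TMT reagents. Pooled samples were trypsin-digested overnight at 37 °C, streptavidin-enriched, acid-eluted and analysed by Orbitrap Eclipse LC-MS/MS with FAIMS, then quantified in FragPipe over three replicates with duplicate channels. A cysteine's log2 competition ratio is its mean control-channel over mean compound-channel reporter intensity. Cysteines quantified in only one replicate were not included.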

| Target | log2 ratio of iodoacetamide-alkyne labeling |
| --- | --- |
| IMMT C603 (UniProt Q16891) | inactive: 0.416 |
| TRIP6 C399 (UniProt Q15654) | inactive: 0.245 |
| UniProt Q1ED39_C172 | inactive: 0.712 |
| UniProt Q15369_C11 | inactive: 0.0418 |
| EFTUD2 C639 (UniProt Q15029) | inactive: 0.0251 |
| TARBP2 C282 (UniProt Q15633) | inactive: 0.513 |
| UniProt Q15418_C552 | inactive: 0.153 |
| LRRFIP1 C750 (UniProt Q32MZ4) | inactive: 0.706 |
| AMOT C617 (UniProt Q4VCS5) | inactive: 0.126 |
| NSDHL C86 (UniProt Q15738) | inactive: -0.0927 |
| PPA1 C242 (UniProt Q15181) | inactive: -0.191 |
| UniProt Q15046_C496 | inactive: -0.0363 |
| UniProt Q15149_C3821 | inactive: 0.398 |
| ELF2 C307 (UniProt Q15723) | inactive: 0.387 |
| R3HDM1 C304 (UniProt Q15032) | inactive: 0.1 |
| GLYR1 C303 (UniProt Q49A26) | inactive: 0.194 |
| UBE3C C622 (UniProt Q15386) | inactive: 0.0907 |
| UniProt Q15149_C3299 | inactive: 0.33 |
| UniProt Q15365_C163 | inactive: 0.0788 |

In a second layout: entries from further up.
Target | log2 ratio of iodoacetamide-alkyne labeling
TRIP6 C399 (UniProt Q15654) | inactive: 0.245
UniProt Q1ED39_C172 | inactive: 0.712

Later entries.

| Target | log2 ratio of iodoacetamide-alkyne labeling |
| --- | --- |
| UniProt Q15365_C54 | inactive: 0.397 |
| NCOA1 C831 (UniProt Q15788) | inactive: 0.4 |
| UniProt Q15208_C9 | inactive: 0.465 |
| PCM1 C1999 (UniProt Q15154) | inactive: 0.275 |
| HSDL1 C328 (UniProt Q3SXM5) | inactive: 0.374 |
| UniProt Q15042_C678 | inactive: 0.105 |
| LLGL1 C697 (UniProt Q15334) | inactive: 0.999 |
| WDR43 C380 (UniProt Q15061) | inactive: 0.495 |
| AMOT C741 (UniProt Q4VCS5) | inactive: 0.547 |
| UGP2 C123 (UniProt Q16851) | inactive: 0.0184 |
| ANKRD39 C173 (UniProt Q53RE8) | inactive: 0.34 |
| PMVK C38 (UniProt Q15126) | inactive: 0.115 |
| PWP2 C24 (UniProt Q15269) | inactive: -0.172 |
| UniProt Q15750_C24 | inactive: 0.554 |
| LRRFIP1 C334 (UniProt Q32MZ4) | inactive: -0.0513 |
| NONO C145 (UniProt Q15233) | inactive: 0.485 |
| UniProt Q16352_C54 | inactive: 0.431 |
| DBN1 C613 (UniProt Q16643) | inactive: 0.258 |
| LRRC41 C792 (UniProt Q15345) | inactive: 0.506 |
